# Results are given in words; binding and its absence hold for the method and conditions named. In cells and extracts the contact can be indirect. Binding calls can cover weak binding; strength is not graded here.
# Chains of the proteins cited; added tags and fusions are not shown. Lines headed by an entry give the natural chain unless they say otherwise; changes in a name come on top.
# UniProt P46937: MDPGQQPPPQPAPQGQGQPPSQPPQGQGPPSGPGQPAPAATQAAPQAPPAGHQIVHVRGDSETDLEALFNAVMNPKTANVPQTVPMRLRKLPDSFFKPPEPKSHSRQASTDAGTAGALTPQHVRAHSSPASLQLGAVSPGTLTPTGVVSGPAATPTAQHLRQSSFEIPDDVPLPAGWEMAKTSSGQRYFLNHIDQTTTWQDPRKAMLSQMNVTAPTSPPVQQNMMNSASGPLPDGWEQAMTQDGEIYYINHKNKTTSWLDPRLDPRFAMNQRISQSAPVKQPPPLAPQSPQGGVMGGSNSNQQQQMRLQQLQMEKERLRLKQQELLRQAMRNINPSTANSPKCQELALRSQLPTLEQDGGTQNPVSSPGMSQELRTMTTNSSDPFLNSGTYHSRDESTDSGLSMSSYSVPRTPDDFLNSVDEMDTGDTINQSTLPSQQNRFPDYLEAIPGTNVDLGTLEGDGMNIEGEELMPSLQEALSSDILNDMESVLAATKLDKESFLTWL
# UniProt P67775: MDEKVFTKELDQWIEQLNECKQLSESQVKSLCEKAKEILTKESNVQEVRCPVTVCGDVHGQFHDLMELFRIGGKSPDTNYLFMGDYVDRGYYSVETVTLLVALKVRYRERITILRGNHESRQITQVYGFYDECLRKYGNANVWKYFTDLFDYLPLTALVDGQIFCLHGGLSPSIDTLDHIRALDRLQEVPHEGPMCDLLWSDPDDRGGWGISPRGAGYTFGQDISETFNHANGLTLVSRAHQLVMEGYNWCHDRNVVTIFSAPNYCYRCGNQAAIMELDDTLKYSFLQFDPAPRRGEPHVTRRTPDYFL
# Biological target: Yes-associated protein (YAP) (human (endogenous in CD18/HPAF)) (UniProt P46937)
# Experiment: co-IP; reciprocal co-immunoprecipitation from 1 mg lysate of CD18/HPAF cells expressing Control-shRNA or PR55α-shRNA, with anti-PR55α (100C1) or anti-YAP antibody; immunoblotting; nonimmunized IgG as control; in Fig. 6b half of the anti-PR55α precipitate was treated with shrimp alkaline phosphatase (10 units/ml, 37 °C, 1 h)
substance,measurement,value
PP2A-C subunit (catalytic subunit) (from UniProt P67775),binding,binds

# — publication PMC6817822
